Experimental data taken from patent US10004233B2, “Relating to treatment of water” (BWA WATER ADDITIVES UK LIMITED, priority 2015, dated 2018).
Some of these results come from one statement about several compounds together.

Test system: Desulfovibrio vulgaris
Assay: Log10 reduction of viable anaerobic bacteria in high-TDS phosphate buffer suspension (API RP 38 media vials)
Type: cell-based
Settings: TTPC or DMO used individually at the same concentrations; at one hour; summary of Table 1
Description: Aqueous systems inoculated with anaerobe and facultative anaerobe culture and having a total dissolved solids (TDS) concentration of 30,000 mg l^−1 were prepared and treated with treatment agents comprising: (a) a phosphonium compound and (b) an oxazolidine compound. The phosphonium compound (a) used was tri n-butyl n-tetradecyl phosphonium chloride (TTPC). The oxazolidine compound (b) was 4,4-dimethyloxazolidine (DMO).
A suspension of Desulfovibrio vulgaris plus Enterobacter aerogenes bacteria containing from 1×10^5 to 1×10^6 cells/mL was prepared in sterile pH 8 phosphate buffer containing sodium chloride to give the desired total dissolved solids (TDS) concentration. Aliquots of this suspension were dosed with the indicated concentrations of the compounds (a) and (b) with the concentrations being measured as ppm active. The mixtures were allowed to stand at room temperature. […] Results were recorded as log10 reduction in the viable count versus the control.
The efficacy of the treatment agents was evaluated by measuring the Log10 Reduction of the anaerobic bacterium Desulfovibrio vulgaris and the facultative anaerobic bacterium Enterobacter aerogenes after contact times of 1 hour, 4 hours and 24 hours as detailed in Table 1. […]

SMILES	log reduction against anaerobes
CCCCCCCCCCCCCC[P+](CCCC)(CCCC)CCCC.[Cl-] [TTPC, tri n-butyl n-tetradecyl phosphonium chloride]	1-2 log
CC1(C)COCN1 [DMO, 4,4-dimethyloxazolidine]	1-2 log
